The assay is described as follows: qHTS Assay to Find Inhibitors of Chronic Active B-Cell Receptor Signaling. Conditions: ABC-DLBCL IkBa-CBG/CBR reporter, luminescence ratio (green luciferase fused to IkBa over red control in TMD8 lymphoma cells), 4 h. An outline of the steps: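 Doxycycline induced both beetle luciferases in TMD8 lymphoma cells; IKK-driven degradation limits the IkappaBalpha-fused green signal, while red luminescence normalises for cell number and nonspecific effects. Compounds tested up to 46 uM, 4 hrs.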

The mark [1] stands for this setting: measured here: CBR red luminescence, cell number.
[2] abbreviates: measured here: IkBa-CBG green luminescence.

The values below come from PubChem BioAssay AID493014 (National Center for Advancing Translational Sciences (NCATS), 2011).

This is one part of the list. These are further read-outs of the screen, such as a control signal, another cell line or another target. No call is given for them. The list favours compounds with an active or inconclusive main result. The note in brackets gives the kind of curve behind each potency; many fits are weak.

As to `O=C(Nc1cccc(NC(=O)c2cccc(Cl)c2)c1)c1cccnc1`, the AC50 (in general, the concentration at which the activity in the assay is half-maximal) under setting [1] is 1.58 µM [falling, full curve, poor fit].
Same read-out and setting: under `CC(=O)Nc1ccc(NC(=O)c2ccccc2F)cc1` stands 11.6 µM [falling, partial curve, poor fit]; under `Cc1onc(-c2c(F)cccc2Cl)c1C(=O)OCc1cnc(Cl)s1`, 3.98 µM [rising, full curve, poor fit].
The same measure, in the same setting: with `Cc1ccc(C(C(=O)NC2CCCCC2)N(Cc2ccco2)C(=O)Cc2c[nH]c3ccccc23)o1` (configuration not stated) the figure was 29.1 µM [falling, single point].
Turning to `O=C1C=C(Nc2cccc3cccnc23)c2ccccc2C1=O`, the AC50 reads like this: under setting [1], 0.631 µM [rising, full curve, poor fit]; under setting [2], 1 µM [falling, full curve].
Take `C/C(=N\NC(=O)c1nonc1N)c1cccs1`: the AC50 under setting [1] was 10.3 µM [falling, partial curve, poor fit].
In the case of `COc1ccc2nc3c(cc2c1)c(NC(=O)CC(C)C)nn3CC(C)C`, the AC50 under setting [1] was 1.26 µM [falling, partial curve, poor fit] and the AC50 under setting [2] was 3.16 µM [rising, full curve, poor fit].
For the molecule `Cc1[nH]n(-c2cccc(Cl)c2)c(=O)c1-c1ccc(Cl)cc1`, the concentration at half-maximal activity (AC50) under setting [1] is 18.4 µM [falling, single point].
Same read-out and setting: with `COc1cccc(CNc2ncc(-c3ccccc3)n2C)c1` the figure was 11.2 µM [falling, partial curve].
On the same count and under the same terms, with `Cc1ccc(NC(=O)c2cc3ccccc3o2)nc1` the figure was 6.51 µM [falling, full curve].
On the same count and under the same terms, with `Cc1cccc(N2CCN(C(=O)C3CCN(S(=O)(=O)c4c(C)noc4C)CC3)CC2C)c1` (configuration not stated) the figure was 10 µM [falling, partial curve, poor fit]; with `c1cncc(-c2nc(-c3ccc4c(c3)OCCO4)cs2)c1`, 2.51 µM [rising, partial curve, poor fit].
Consider `CN(Cc1ccccc1)C(=O)c1nc[nH]c1C(=O)N1CCc2ccccc2C1`, for which the concentration at half-maximal activity (AC50) under setting [1] was 16.4 µM [falling, single point].
On to `Cc1ccc(C)c2nc3sc(C(=O)O)cc3cc12`, for which, under setting [1], the AC50 is 10 µM [falling, partial curve].
As for `CCN(CC(=O)NCc1ccc(Cl)cc1)C(=O)CN1C(=O)NC(C)(c2ccccc2)C1=O` (configuration not stated), the AC50 under setting [1] was 6.31 µM [rising, single point].
On to `CCOc1ccc(OCCOC(=O)CNC(=O)c2ccc(Cl)cc2Cl)cc1`, for which, under setting [1], the concentration at half-maximal activity (AC50) was 18.4 µM [rising, single point].
`O=C(Cc1ccc(Cl)cc1)NNc1c(F)c(F)cc(F)c1F`: the AC50 under setting [1] was 0.092 µM [falling, full curve, poor fit].
Consider `CC(=O)Nc1cccc(-c2csc(Nc3ccc(Cl)cn3)n2)c1`, for which the AC50 under setting [1] was 7.94 µM [falling, partial curve].
On the same count and under the same terms, with `CC(C)=NN1C(=O)c2ccccc2NC1(C)C` the figure was 15.8 µM [falling, single point]; with `O=C(CSc1nnc(Nc2ccccc2)s1)Nc1ccc(S(=O)(=O)N2CCOCC2)cc1`, 5.8 µM [falling, full curve, poor fit].
For the molecule `COc1ccccc1/C=N/NC(=O)c1ccc(NC(=O)c2ccccc2Br)cc1`, the AC50 under setting [1] was 25.9 µM [falling, partial curve, poor fit].
On the same count and under the same terms, under `CCOc1cc(CNc2ccc3cn[nH]c3c2)ccc1OC` stands 5.8 µM [falling, full curve, poor fit].
Regarding `COc1cc(NC(=O)c2ccc3snnc3c2)cc(OC)c1`, the AC50 under setting [1] is 3.98 µM [falling, partial curve, poor fit].
As for `Cc1cc(C(=O)N/N=C/c2ccc(Cl)c([N+](=O)[O-])c2)c(C)n1-c1ccc(F)cc1`, the AC50 is 23.1 µM [rising, partial curve, poor fit] under setting [1] and 18.4 µM [falling, single point] under setting [2].
Take `O=C1C(=O)N(CCCc2ccccc2)c2ccccc21`: under setting [1], the AC50 is 12.6 µM [rising, partial curve, poor fit].
`Cc1ccc(C)n1-c1ccc(C(=O)NN=C2CCCC2)cc1`: the concentration at half-maximal activity (AC50) under setting [1] is 7.94 µM [falling, partial curve, poor fit].
For the molecule `N#C/C(=C\c1cccs1)C(=O)Nc1ccccn1`, under setting [1], the half-maximal activity concentration (AC50) is 10 µM [falling, partial curve, poor fit].
As to `CC(C)(C)c1ccc(Cn2nnc3c(=O)[nH]c(C4CCN(C(=O)Cc5cccs5)CC4)nc32)cc1`, the AC50 under setting [1] was 12.6 µM [falling, partial curve].
The same measure, in the same setting: with `O=C1S/C(=C\C=C\c2ccco2)C(=O)N1c1ccccc1` the figure was 0.0103 µM [rising, full curve, poor fit]; with `Cc1ccccc1Cn1cc(NC(=O)COc2ccccc2)cn1`, 0.562 µM [falling, partial curve, poor fit].
Consider `O=C1NC(=Nc2ccccc2Cl)S/C1=C\c1cccc([N+](=O)[O-])c1O`, for which the AC50 under setting [1] was 4.47 µM [falling, full curve, poor fit].
Same read-out and setting: with `Cc1cc(=O)oc2cc(OCc3ccc(C(=O)OCC(=O)N(C)C4CCS(=O)(=O)C4)cc3)ccc12` (configuration not stated) the figure was 22.4 µM [falling, partial curve, poor fit]; with `O=C(NNC(=O)c1ccco1)c1ccccc1`, 6.51 µM [falling, partial curve, poor fit]; with `CCOc1ccc(CCNC(=O)C(CC)n2nc(C)n3c(cc4sccc43)c2=O)cc1OCC` (configuration not stated), 32.6 µM [falling, single point].
Turning to `COc1ccc(NC(=O)C(OC(=O)c2cnccn2)c2ccccc2)cc1Cl` (configuration not stated), under setting [1], the AC50 was 11.2 µM [falling, partial curve, poor fit].
As to `Cc1cccc(CSCc2ccc(C(=O)NC3CCCC3)o2)c1`, the concentration at half-maximal activity (AC50) under setting [1] is 35.5 µM [rising, single point].
The same measure, in the same setting: with `Cc1cccc(NC2=NC(C)(C)N=C(N)N2)c1` the figure was 3.55 µM [falling, partial curve, poor fit].
As for `Cn1nnnc1SCc1ccc(CSc2nnnn2C)cc1`, under setting [1], the half-maximal activity concentration (AC50) was 15.8 µM [rising, partial curve, poor fit].
Take `COc1cccc(N2CCN(C(=O)c3cc4c(s3)-c3ccccc3OC4)CC2)c1`: the AC50 under setting [1] is 14.1 µM [falling, partial curve].
Still for that read-out and setting: with `COc1cc2c3nnc(-c4ccc(F)cc4)c-3cn(Cc3ccc(F)cc3)c2cc1OC` the figure was 6.51 µM [rising, single point].
Take `O=C(Cc1ccccc1F)Nc1nc2ccccc2[nH]1`: the AC50 under setting [1] is 12.6 µM [falling, single point].
In the case of `COC(=O)c1ccc(NC(=S)N2CCC(C(N)=O)CC2)cc1`, under setting [1], the AC50 was 7.31 µM [falling, partial curve, poor fit].
Same read-out and setting: with `COc1ccc(CNC(=O)COC(=O)CCOc2ccccc2)cc1` the figure was 2.31 µM [rising, partial curve].
As to `COC1=CC(=O)CC(C)C12Oc1c(Cl)c(OC)cc(OC)c1C2=O` (configuration not stated), the AC50 reads like this: under setting [1], 18.4 µM [rising, partial curve]; under setting [2], 18.4 µM [falling, partial curve, poor fit].
As for `O=C(c1cccs1)N1CCN(c2nc3ccccc3s2)CC1`, the AC50 under setting [1] was 2 µM [rising, partial curve, poor fit].
Same read-out and setting: with `Cc1cccc(C)c1NC(=O)CNC(=O)CCCN1C(=O)c2cccc3cccc(c23)C1=O` the figure was 1.3 µM [rising, full curve, poor fit].
On the same count and under the same terms, with `COc1ccc(Cl)cc1C(Nc1cccnc1)c1ccc2cccnc2c1O` (configuration not stated) the figure was 35.5 µM [falling, single point].
On to `CS(=O)(=O)Nc1cccc(C(=O)CC2(O)C(=O)Nc3ccc(Br)cc32)c1` (configuration not stated), for which the AC50 under setting [2] was 20 µM [falling, partial curve, poor fit].
For the molecule `Nc1ccccc1SCC(=O)Nc1nc(-c2ccccc2)cs1`, the AC50 under setting [1] was 25.1 µM [falling, single point].
On the same count and under the same terms, under `CCCc1nnc(NC(=O)CSc2ncn[nH]2)s1` stands 0.562 µM [falling, full curve, poor fit]; under `O=C(/C=C/c1c[nH]c2ccccc12)c1cccc2ccccc12`, 3.55 µM [falling, partial curve, poor fit]; under `CC(=O)NS(=O)(=O)c1ccc(N=c2ssc3c2-c2ccc(C)cc2NC3(C)C)cc1`, 11.6 µM [falling, partial curve].
`CCOC(=O)N1CCN(Cc2cn[nH]c2-c2cc3ccccc3o2)CC1`: under setting [1], the AC50 was 14.1 µM [falling, partial curve].
On the same count and under the same terms, with `Cc1nc2c([nH]c3ccc(Br)cc32)s1` the figure was 20.6 µM [rising, partial curve, poor fit].
Same read-out and setting: with `CC1CCCC(C)N1/N=C/c1ccc([N+](=O)[O-])cc1` (configuration not stated) the figure was 3.16 µM [rising, full curve].
As for `CCN(Cc1nc2ccccc2c(=O)[nH]1)Cc1nc2ccsc2c(=O)[nH]1`, the AC50 was 22.4 µM [falling, single point] under setting [1] and 11.2 µM [falling, partial curve, poor fit] under setting [2].
In the case of `COc1ccc2c(c1)sc(N)[n+]2Cc1cc(C)cc2cccnc12`, under setting [2], the AC50 was 18.4 µM [falling, single point].
In the case of `O=C1C(Nc2ccccc2)=C/C(=N/S(=O)(=O)c2cccs2)c2ccccc21`, the AC50 is, setting by setting: under setting [1], 4.61 µM [falling, partial curve]; under setting [2], 20.6 µM [rising, single point].
Regarding `CC(=O)N=C1SC2CS(=O)(=O)CC2N1c1ccc(-c2nc3ccc(C)cc3s2)cc1` (configuration not stated), under setting [1], the AC50 is 11.6 µM [rising, partial curve, poor fit].
On the same count and under the same terms, under `Cc1ccc(-c2ccc(=O)n(CCC(=O)NCCc3ccccc3)n2)cc1` stands 5.01 µM [rising, single point].
Same read-out and setting: under `CCOC(=O)C1CCN(S(=O)(=O)c2ccc3c4c(cccc24)C(=O)N3)CC1` stands 5.62 µM [rising, full curve, poor fit].
